From patent US6143719A, “Bradykinin analogs as selective thrombin inhibitors” (The Regents of the University of Michigan, priority 1996, dated 2000)
Part of at least one peptide drawing is inferred or uncertain, most often the ends. Numbered stars: 1 amine (or outer) side, 2 acyl side, 3 side chain; on linkers, the order of the positions; unused ones are H or OH. Bridge positions count the residues as written; N and C are the ends. Square brackets hold non-standard residues; d marks the D form. Ends that are not written are not given here. Peptide text beside a SMILES is read from it. I, II: the chains in the order shown. γGlu = O=C(O)[C@H](CCC(=O)[*:2])N[*:1]

How the values were obtained:
Human platelets in PRP = experiment: γ-thrombin-induced aggregation of human platelets in PRP in vitro; assay type: cell-based; settings: 20 nM γ-thrombin
Method: Platelet aggregation studies on the PRP were conducted on a 4-channel aggregometer (BioData-PAP-4, Bio Data Corp., Hatboro, Pa.). The degree of platelet aggregation was determined by measuring the increase in light transmission through a stirred suspension of PRP maintained at 37° C. Platelet aggregation was induced in the PRP sample by addition of 20 μM ADP and γ-thrombin according to the method of Harfenist et al., Thromb. Haemost. 53, 183 (1985). […] Like human platelets, rabbit platelets display a variable response to γ-thrombin. Each rabbit's platelets were evaluated before BK analog infusion for their threshold response to γ-thrombin. The rabbit platelets used in this experiment were responsive to 10 nM to 40 nM γ-thrombin. Simultaneous γ-thrombin-induced platelet aggregation studies were performed with 10, 20, and 40 nM γ-thrombin and 20 μM ADP.
The protocol for the human platelet study was identical to that for the functional study with white rabbits described above in Section III.A, with the following differences.
Blood samples were obtained from normal human volunteers. Platelet counts were measured with a Coulter counter, Model 2F (Coulter, Hialeah, Fla.,) and adjusted to a platelet count of 200,000 platelets/μl. Each individual's platelets at baseline were measured for their threshold response to γ-thrombin. Typical threshold levels were between 10 nM to 40 nM.

rabbit platelets = experiment: rabbit function inhibition study: platelet aggregation in PRP after single bolus infusion; assay type: in vivo, New Zealand white rabbits

| Molecule | effect on γ-thrombin-induced aggregation tracing (Human platelets in PRP; 0.5 mM) | effect on γ-thrombin-induced aggregation tracing (Human platelets in PRP; peptide 1 mM) | time for which 10 nM γ-thrombin-induced platelet aggregation was inhibited 100% (rabbit platelets; 10 nM γ-thrombin) | time for which 20 nM γ-thrombin-induced platelet aggregation was inhibited ≥50% (rabbit platelets; 20 nM γ-thrombin) | time for which 40 nM γ-thrombin-induced platelet aggregation was inhibited ≥50% (rabbit platelets; 40 nM γ-thrombin) | time of ≥50% inhibition of ADP-induced platelet aggregation (rabbit platelets; 20 μM ADP) |
| --- | --- | --- | --- | --- | --- | --- |
| N=C(N)NCCC[C@H](NC(=O)[C@@H](N)CCCCNC(=O)CC[C@H](NC(=O)[C@H](Cc1ccccc1)NC(=O)CNC(=O)[C@@H]1CCCN1C(=O)[C@@H]1CCCN1C(=O)[C@@H](N)CCCNC(=N)N)C(=O)O)C(=O)N1CCC[C@H]1C(=O)N1CCC[C@H]1C(=O)NCC(=O)N[C@@H](Cc1ccccc1)C(=O)O [heterodimer] (I: H-KRPPGF-OH / II: H-RPPGF[γGlu]; amide I:1-II:C) | abolished |  |  |  |  |  |
| RPPGF [SEQ ID NO:19, Arg-Pro-Pro-Gly-Phe] |  | abolished | over 4 hours | 2.75 h | one | roughly 45 minutes |
